In the supplement of paper PMC10849652:
The other results are listed elsewhere or left out.

The chains behind the UniProt entries cited, without tags or fusion partners. Where a name states a change or a piece, a line headed by the entry shows the natural chain unless it says otherwise.
UniProt Q96LT7: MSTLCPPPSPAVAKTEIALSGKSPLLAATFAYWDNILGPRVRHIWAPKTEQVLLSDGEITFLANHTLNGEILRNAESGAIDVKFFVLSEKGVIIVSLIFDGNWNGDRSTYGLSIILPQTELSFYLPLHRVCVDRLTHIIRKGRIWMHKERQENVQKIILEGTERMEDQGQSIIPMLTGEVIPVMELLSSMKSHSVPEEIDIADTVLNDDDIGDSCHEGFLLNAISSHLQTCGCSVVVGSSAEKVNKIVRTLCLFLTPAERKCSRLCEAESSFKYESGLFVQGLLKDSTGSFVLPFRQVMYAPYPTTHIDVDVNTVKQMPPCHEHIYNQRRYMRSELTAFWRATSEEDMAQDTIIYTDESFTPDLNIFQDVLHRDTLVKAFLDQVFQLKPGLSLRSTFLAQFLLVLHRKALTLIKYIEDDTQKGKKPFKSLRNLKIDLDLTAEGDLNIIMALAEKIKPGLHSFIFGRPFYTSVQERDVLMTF
UniProt O43852: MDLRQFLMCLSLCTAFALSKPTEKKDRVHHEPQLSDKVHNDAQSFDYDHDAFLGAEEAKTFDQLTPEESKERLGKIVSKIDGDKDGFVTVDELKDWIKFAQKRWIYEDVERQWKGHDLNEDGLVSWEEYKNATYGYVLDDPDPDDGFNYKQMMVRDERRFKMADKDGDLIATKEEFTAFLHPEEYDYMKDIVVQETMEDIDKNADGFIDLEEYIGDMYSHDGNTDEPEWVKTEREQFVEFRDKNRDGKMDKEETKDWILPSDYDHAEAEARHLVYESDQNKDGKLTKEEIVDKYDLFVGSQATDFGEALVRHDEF
UniProt Q96B23: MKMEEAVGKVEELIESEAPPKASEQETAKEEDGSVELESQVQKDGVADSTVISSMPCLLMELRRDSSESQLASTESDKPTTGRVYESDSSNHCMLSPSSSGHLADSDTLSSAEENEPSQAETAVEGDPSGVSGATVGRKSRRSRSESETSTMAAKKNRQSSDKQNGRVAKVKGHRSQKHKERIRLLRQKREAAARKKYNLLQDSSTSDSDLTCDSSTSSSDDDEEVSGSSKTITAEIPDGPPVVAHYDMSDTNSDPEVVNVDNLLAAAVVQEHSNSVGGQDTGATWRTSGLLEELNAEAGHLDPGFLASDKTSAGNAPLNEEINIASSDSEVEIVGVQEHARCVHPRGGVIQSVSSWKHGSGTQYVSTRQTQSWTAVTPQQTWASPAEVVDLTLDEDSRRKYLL
UniProt Q9P1Z2: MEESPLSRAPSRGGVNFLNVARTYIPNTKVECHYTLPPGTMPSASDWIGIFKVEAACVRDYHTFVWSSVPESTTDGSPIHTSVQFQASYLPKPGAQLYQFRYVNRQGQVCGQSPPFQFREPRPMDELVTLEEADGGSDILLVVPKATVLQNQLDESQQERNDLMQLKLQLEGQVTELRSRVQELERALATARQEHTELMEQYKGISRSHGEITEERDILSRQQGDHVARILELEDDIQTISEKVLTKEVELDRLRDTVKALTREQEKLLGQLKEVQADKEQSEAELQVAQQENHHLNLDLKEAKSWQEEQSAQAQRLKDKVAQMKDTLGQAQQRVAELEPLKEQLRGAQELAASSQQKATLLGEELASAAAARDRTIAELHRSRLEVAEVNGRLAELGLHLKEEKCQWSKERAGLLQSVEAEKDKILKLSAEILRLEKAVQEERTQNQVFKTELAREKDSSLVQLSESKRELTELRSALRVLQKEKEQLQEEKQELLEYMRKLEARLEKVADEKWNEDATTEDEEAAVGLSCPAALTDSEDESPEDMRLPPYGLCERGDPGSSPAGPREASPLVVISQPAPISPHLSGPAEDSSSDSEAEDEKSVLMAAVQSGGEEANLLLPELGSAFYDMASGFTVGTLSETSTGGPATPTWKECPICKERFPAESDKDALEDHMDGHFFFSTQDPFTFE
UniProt P10643, whole entry, looked up: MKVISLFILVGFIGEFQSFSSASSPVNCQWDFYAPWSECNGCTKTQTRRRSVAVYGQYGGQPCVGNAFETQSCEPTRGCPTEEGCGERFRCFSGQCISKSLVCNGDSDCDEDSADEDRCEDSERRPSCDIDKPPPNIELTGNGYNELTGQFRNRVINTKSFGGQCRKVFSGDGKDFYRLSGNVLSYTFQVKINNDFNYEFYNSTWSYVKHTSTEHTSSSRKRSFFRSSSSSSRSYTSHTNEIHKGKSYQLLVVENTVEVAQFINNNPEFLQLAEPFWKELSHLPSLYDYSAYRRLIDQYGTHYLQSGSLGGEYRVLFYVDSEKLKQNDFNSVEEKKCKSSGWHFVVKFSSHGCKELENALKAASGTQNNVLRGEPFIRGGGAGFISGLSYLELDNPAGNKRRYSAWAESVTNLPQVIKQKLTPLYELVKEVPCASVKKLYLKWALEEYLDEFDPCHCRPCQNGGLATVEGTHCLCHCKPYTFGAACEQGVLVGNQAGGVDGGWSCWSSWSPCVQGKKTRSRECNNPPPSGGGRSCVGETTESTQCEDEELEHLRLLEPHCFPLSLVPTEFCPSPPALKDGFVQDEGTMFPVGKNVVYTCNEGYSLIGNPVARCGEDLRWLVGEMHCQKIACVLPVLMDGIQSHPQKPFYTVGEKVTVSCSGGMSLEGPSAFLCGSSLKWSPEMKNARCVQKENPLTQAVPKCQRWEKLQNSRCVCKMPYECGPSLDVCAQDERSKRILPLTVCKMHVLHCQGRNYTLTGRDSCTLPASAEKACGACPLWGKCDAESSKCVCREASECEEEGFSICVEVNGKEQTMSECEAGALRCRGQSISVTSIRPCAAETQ
UniProt Q7Z4R8: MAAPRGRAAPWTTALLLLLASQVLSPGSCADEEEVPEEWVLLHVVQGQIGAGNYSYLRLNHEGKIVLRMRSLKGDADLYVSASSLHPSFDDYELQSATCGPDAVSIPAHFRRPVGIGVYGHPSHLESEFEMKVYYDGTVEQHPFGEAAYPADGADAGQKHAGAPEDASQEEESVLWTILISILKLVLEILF
UniProt Q9H8G2: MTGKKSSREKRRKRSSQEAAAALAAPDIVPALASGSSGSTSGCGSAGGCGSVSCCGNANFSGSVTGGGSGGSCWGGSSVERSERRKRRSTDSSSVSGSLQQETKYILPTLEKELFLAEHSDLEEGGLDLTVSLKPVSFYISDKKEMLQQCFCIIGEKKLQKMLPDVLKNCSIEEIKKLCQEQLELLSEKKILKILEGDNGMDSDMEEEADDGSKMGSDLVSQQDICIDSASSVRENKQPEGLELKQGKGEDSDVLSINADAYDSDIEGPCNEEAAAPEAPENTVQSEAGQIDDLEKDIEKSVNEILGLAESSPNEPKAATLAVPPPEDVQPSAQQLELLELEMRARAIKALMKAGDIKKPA
UniProt Q9BUW7: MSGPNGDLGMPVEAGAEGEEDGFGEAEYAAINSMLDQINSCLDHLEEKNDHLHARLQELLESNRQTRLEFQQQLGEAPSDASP
UniProt Q6P5X5: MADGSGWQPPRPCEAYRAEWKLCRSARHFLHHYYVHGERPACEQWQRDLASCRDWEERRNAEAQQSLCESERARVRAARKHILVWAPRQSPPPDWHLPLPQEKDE
UniProt Q9BRD0: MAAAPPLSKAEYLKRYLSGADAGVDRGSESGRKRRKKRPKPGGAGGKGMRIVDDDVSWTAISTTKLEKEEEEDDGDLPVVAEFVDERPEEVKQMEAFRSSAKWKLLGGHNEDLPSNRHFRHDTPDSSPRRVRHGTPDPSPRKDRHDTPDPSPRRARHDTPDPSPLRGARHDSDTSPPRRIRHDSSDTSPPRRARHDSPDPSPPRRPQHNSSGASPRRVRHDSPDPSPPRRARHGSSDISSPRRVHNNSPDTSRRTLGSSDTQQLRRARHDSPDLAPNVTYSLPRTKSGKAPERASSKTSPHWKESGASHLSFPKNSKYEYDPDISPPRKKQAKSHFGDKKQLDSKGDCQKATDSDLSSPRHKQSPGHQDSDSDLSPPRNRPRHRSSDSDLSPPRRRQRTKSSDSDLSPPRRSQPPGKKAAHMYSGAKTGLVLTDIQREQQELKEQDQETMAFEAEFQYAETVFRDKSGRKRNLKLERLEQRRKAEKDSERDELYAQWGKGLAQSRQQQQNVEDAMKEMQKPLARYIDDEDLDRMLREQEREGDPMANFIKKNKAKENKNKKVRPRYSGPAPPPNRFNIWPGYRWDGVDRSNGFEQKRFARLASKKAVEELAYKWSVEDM
UniProt Q96HA4: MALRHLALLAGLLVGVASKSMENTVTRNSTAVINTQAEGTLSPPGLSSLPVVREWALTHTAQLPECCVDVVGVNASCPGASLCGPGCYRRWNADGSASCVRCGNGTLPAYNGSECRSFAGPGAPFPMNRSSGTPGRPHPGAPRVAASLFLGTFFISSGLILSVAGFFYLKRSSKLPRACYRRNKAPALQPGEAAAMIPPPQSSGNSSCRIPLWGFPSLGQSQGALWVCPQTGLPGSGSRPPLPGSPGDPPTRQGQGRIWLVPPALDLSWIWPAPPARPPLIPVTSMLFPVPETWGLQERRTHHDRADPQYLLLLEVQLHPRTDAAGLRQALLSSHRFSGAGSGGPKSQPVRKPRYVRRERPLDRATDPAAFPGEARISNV
UniProt Q5SNV9: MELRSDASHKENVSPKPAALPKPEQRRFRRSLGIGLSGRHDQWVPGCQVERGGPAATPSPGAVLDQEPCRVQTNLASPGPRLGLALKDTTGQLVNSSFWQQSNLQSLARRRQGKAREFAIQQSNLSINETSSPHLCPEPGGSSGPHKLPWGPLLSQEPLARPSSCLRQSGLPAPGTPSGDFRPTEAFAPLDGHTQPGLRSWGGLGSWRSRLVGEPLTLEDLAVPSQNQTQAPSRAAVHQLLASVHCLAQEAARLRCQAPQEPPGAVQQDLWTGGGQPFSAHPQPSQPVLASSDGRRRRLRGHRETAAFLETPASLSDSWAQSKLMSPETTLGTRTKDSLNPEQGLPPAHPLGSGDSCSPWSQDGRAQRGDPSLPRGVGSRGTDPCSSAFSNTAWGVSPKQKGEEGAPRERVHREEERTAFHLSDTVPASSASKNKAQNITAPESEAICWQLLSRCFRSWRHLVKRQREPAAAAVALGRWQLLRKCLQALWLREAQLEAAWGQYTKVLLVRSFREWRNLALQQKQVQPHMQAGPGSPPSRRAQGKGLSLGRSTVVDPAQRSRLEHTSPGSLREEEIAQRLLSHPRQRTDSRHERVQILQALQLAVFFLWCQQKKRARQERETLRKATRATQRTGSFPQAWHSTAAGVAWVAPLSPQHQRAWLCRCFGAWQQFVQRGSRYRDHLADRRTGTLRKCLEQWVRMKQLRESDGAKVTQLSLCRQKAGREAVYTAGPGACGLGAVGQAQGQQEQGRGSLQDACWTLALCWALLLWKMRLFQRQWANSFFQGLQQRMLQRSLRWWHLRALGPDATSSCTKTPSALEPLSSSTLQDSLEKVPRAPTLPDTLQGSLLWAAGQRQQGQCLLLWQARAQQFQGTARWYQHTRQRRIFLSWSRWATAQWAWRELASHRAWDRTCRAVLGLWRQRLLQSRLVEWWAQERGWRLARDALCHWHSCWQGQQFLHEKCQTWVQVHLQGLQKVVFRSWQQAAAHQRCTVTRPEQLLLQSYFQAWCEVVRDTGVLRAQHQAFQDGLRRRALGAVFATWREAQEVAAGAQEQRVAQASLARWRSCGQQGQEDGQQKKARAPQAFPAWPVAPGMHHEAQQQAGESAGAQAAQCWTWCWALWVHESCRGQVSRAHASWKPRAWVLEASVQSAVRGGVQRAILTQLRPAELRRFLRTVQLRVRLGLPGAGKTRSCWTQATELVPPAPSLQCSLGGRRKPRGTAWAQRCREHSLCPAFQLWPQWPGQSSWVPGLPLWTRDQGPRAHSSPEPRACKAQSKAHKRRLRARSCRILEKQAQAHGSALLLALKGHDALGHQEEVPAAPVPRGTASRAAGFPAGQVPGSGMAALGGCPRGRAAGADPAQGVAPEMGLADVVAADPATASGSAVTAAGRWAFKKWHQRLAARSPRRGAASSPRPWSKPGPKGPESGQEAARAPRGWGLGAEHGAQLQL
UniProt Q0VDD7: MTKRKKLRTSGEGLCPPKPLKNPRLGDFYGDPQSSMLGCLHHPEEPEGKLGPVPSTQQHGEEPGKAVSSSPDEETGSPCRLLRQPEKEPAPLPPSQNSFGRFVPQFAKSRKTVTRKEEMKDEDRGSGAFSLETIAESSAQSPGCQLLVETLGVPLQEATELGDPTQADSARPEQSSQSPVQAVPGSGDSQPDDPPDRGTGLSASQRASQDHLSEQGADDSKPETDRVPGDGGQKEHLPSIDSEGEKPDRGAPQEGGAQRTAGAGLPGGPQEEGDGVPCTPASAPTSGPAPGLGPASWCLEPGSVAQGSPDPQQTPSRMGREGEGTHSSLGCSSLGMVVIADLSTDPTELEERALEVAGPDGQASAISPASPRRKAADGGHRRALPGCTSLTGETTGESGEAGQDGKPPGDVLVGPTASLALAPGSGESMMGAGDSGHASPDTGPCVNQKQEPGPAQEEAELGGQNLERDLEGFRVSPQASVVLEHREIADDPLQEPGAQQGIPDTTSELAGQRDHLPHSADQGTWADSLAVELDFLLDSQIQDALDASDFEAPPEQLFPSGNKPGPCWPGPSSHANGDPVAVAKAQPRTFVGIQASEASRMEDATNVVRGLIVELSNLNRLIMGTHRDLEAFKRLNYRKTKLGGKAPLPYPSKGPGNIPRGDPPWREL

What was measured:
Experiment in all cases: log2 fold change, soluble protein after heating vs DMSO (PISA); higher = thermal stabilisation; K562 cells, 10 uM, 30 min; active = over 0.2 and 3.5 SD of the protein, either way, in both replicates (recomputed)
bafetinib = compound: Cc1ccc(NC(=O)c2ccc(CN3CC[C@H](N(C)C)C3)c(C(F)(F)F)c2)cc1Nc1nccc(-c2cncnc2)n1 [bafetinib]
Procedure, shortened: (§1)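 Soluble protein was quantified by TMTpro 16plex LC-MS/MS after channel sums were equalised. It was obtained as the supernatant after 21,000xg for 90 min from pooled aliquots of K562 cells (2×10^6 cells/mL, 10 μM compound, 30 min) heated for 3 min across 48°C-58°C and extracted in PBS with 0.5% NP-40 at 4°C. Thermal stability values are relative to control samples and come from duplicates. They are given as log2 fold changes.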

[1] = compound: Cc1cccc(CC(=O)N2CCc3c2ccc(-c2cn(C)c4ncnc(N)c24)c3F)n1
Procedure, shortened: as §1

nilotinib = compound: Cc1cn(-c2cc(NC(=O)c3ccc(C)c(Nc4nccc(-c5cccnc5)n4)c3)cc(C(F)(F)F)c2)cn1 [nilotinib]
Procedure, shortened: as §1

[2] = compound: Cc1nc(Nc2n[nH]c3c2CN(C(=O)N[C@H](CN(C)C)c2ccccc2)C3(C)C)c2sccc2n1
Procedure, shortened: as §1

dasatinib = compound: Cc1nc(Nc2ncc(C(=O)Nc3c(C)cccc3Cl)s2)cc(N2CCN(CCO)CC2)n1 [dasatinib]
Procedure, shortened: as §1

[3] = compound: Cc1ncc(-c2ccnc(Nc3ccc(S(C)(=O)=O)cc3)n2)n1C(C)C
Procedure, shortened: as §1

[4] = compound: Cn1cc(-c2ccc3c(c2)CCN3C(=O)Cc2cccc(C(F)(F)F)c2)c2c(N)ncnc21
Procedure, shortened: as §1

[5] = compound: Cn1cc(-c2ccc3nnc(C(F)(F)c4ccc5ncccc5c4)n3n2)cn1
Procedure, shortened: as §1

tipifarnib = compound: Cn1cncc1[C@@](N)(c1ccc(Cl)cc1)c1ccc2c(c1)c(-c1cccc(Cl)c1)cc(=O)n2C [tipifarnib]
Procedure, shortened: as §1

mubritinib = compound: FC(F)(F)c1ccc(/C=C/c2nc(COc3ccc(CCCCn4ccnn4)cc3)co2)cc1 [mubritinib]
Procedure, shortened: as §1

[6] = compound: NC(=O)Nc1cc(-c2cccc(F)c2)sc1C(=O)N[C@H]1CCCNC1
Procedure, shortened: as §1

[7] = compound: NC(=O)c1cnc(N[C@@H]2CCCC[C@@H]2N)nc1Nc1cccc(-n2nccn2)c1
Procedure, shortened: as §1

[8] = compound: NC1(c2ccc(-c3nc4ccn5c(=O)[nH]nc5c4cc3-c3ccccc3)cc2)CCC1
Procedure, shortened: as §1

[9] = compound: NCC(=O)Nc1ccc(-n2nc(C(F)(F)F)cc2-c2ccc3c(ccc4ccccc43)c2)cc1
Procedure, shortened: as §1

entinostat = compound: Nc1ccccc1NC(=O)c1ccc(CNC(=O)OCc2cccnc2)cc1 [entinostat]
Procedure, shortened: as §1

vorinostat = compound: O=C(CCCCCCC(=O)Nc1ccccc1)NO [vorinostat]
Procedure, shortened: as §1

silmitasertib = compound: O=C(O)c1ccc2c(c1)nc(Nc1cccc(Cl)c1)c1ccncc12 [silmitasertib]
Procedure, shortened: as §1

[10] = compound: O=C1NC(=O)C(c2cnc3ccccn23)=C1c1cn2c3c(cc(F)cc13)CN(C(=O)N1CCCCC1)CC2
Procedure, shortened: as §1

citarinostat = compound: O=C(CCCCCCNC(=O)c1cnc(N(c2ccccc2)c2ccccc2Cl)nc1)NO [citarinostat]
Procedure, shortened: as §1

[11] = compound: c1cc(OCCN2CCCCC2)cc(-c2n[nH]c3ccc(-c4nnc[nH]4)cc23)c1
Procedure, shortened: as §1

Target	log2 fold change (bafetinib)	log2 fold change [1]	log2 fold change (nilotinib)	log2 fold change [2]	log2 fold change (dasatinib)	log2 fold change [3]	log2 fold change [4]	log2 fold change [5]	log2 fold change (tipifarnib)	log2 fold change (mubritinib)	log2 fold change [6]	log2 fold change [7]	log2 fold change [8]	log2 fold change [9]	log2 fold change (entinostat)	log2 fold change (vorinostat)	log2 fold change (silmitasertib)	log2 fold change [10]	log2 fold change (citarinostat)	log2 fold change [11]
C9orf72 (UniProt Q96LT7)	inactive: 0.029	inactive: -0.018	inactive: 0.031	inactive: 0.073	inactive: -0.004	inactive: 0.006	inactive: 0.085	inactive: -0.05	inactive: 0.033	inactive: 0.021	inactive: 0.028	inactive: -0.041	inactive: -0.148	inactive: -0.009	inactive: -0.011	inactive: 0.232	inactive: -0.067	inactive: -0.011	–	–
CALU isoform 4 (UniProt O43852)	inactive: -0.033	inactive: -0.002	inactive: 0	inactive: 0.016	inactive: 0.031	inactive: -0.005	inactive: -0.023	inactive: 0.06	inactive: -0.034	inactive: 0.011	inactive: -0.019	inactive: -0.008	inactive: -0.016	inactive: -0.047	inactive: -0.019	inactive: -0.034	inactive: -0.008	inactive: -0.017	inactive: 0.034	inactive: -0.032
BTN2A1 (UniProt Q7KYR7)	inactive: 0.1	inactive: -0.199	inactive: 0.016	inactive: -0.115	inactive: 0.017	inactive: -0.172	inactive: -0.044	inactive: -0.091	inactive: 0.066	–	–	–	–	inactive: -0.012	–	inactive: -0.144	–	inactive: -0.017	inactive: 0.027	inactive: -0.19
C18orf25 isoform 2 (UniProt Q96B23)	inactive: -0.031	inactive: 0.195	inactive: 0.044	inactive: 0.098	inactive: -0.098	inactive: -0.113	inactive: 0.018	–	inactive: -0.03	inactive: 0.038	inactive: 0.101	inactive: -0.055	inactive: -0.038	inactive: 0.034	inactive: -0.013	inactive: 0.249	inactive: 0.033	inactive: 0.097	inactive: 0.039	inactive: -0.064
C11orf98 (UniProt E9PRG8)	inactive: 0.18	inactive: -0.014	inactive: 0.021	inactive: 0.087	inactive: 0.172	inactive: -0.017	inactive: -0.244	inactive: -0.1	inactive: 0.124	inactive: -0.114	inactive: 0.004	inactive: 0.043	inactive: 0.257	inactive: 0.102	inactive: -0.082	inactive: -0.032	inactive: 0.151	inactive: 0.222	inactive: -0.069	inactive: -0.066
CALCOCO1 (UniProt Q9P1Z2)	inactive: 0.039	inactive: -0.017	inactive: 0.005	inactive: -0.072	inactive: -0.082	inactive: 0.019	inactive: -0.034	inactive: -0.077	inactive: 0.099	inactive: 0.012	–	–	inactive: -0.007	inactive: -0.02	–	inactive: 0.075	inactive: 0.091	inactive: -0.006	inactive: -0.121	inactive: 0.025
C7 (UniProt P10643)	inactive: -0.167	inactive: -0.131	inactive: -0.056	inactive: 0.029	inactive: 0.06	inactive: 0.205	inactive: 0.185	–	inactive: 0.113	–	inactive: 0.001	inactive: -0.519	–	inactive: 0.11	inactive: -0.284	inactive: 0.025	–	inactive: 0.146	inactive: 0.066	inactive: 0.263
C6orf120 (UniProt Q7Z4R8)	inactive: -0.145	–	inactive: -0.045	inactive: 0.044	inactive: 0.029	inactive: -0.048	–	inactive: -0.032	inactive: 0.026	–	inactive: 0.068	–	–	inactive: -0.018	inactive: 0.083	–	–	–	inactive: 0.031	inactive: -0.141
CAAP1 (UniProt Q9H8G2)	inactive: 0.009	–	inactive: -0.011	inactive: 0.099	inactive: 0.078	inactive: 0.021	inactive: -0.142	inactive: -0.043	inactive: 0.122	–	inactive: -0.015	inactive: -0.022	–	inactive: -0.117	inactive: -0.014	–	–	inactive: -0.312	inactive: -0.006	inactive: -0.122
C9orf16 (UniProt Q9BUW7)	–	inactive: -0.323	inactive: -0.064	inactive: -0.057	inactive: 0.107	inactive: 0.03	–	–	–	inactive: -0.019	–	–	inactive: 0.019	–	–	inactive: -0.02	inactive: -0.069	–	–	–
C7orf26 (UniProt Q96N11)	inactive: -0.074	–	inactive: -0.325	inactive: 0.005	–	inactive: 0	–	inactive: -0.008	–	–	inactive: -0.056	–	–	inactive: -0.026	inactive: 0	–	–	inactive: 0.163	–	–
C22orf39 (UniProt Q6P5X5)	inactive: -0.04	–	inactive: -0.07	inactive: 0.038	inactive: -0.232	inactive: -0.12	inactive: -0.036	inactive: 0.031	inactive: -0.071	inactive: 0.031	inactive: 0.093	inactive: -0.036	inactive: -0.106	–	inactive: 0.037	–	inactive: 0.016	inactive: 0.089	–	–
BUD13 (UniProt Q9BRD0)	–	inactive: -0.015	inactive: 0.076	inactive: 0.032	inactive: 0.126	inactive: -0.522	inactive: -0.261	inactive: -0.114	inactive: 0.097	inactive: -0.03	inactive: 0.237	inactive: 0.104	inactive: 0.272	inactive: 0.037	inactive: -0.096	inactive: -0.035	inactive: 0	inactive: 0.104	–	–
C1orf159 isoform 4 (UniProt Q96HA4)	inactive: 0.064	inactive: -0.101	–	–	–	–	inactive: 0.121	–	–	–	inactive: 0.205	–	–	inactive: -0.157	inactive: -0.002	inactive: -0.042	–	–	–	–
C11orf24 (UniProt Q96F05)	inactive: -0.16	–	–	–	–	–	–	inactive: -0.046	–	–	inactive: 0.014	inactive: -0.092	–	–	inactive: -0.115	–	–	inactive: 0.112	–	–
C15orf41 (UniProt Q9Y2V0)	–	inactive: -0.101	–	–	active: -0.357	–	inactive: -0.097	inactive: -0.088	inactive: -0.087	–	inactive: -0.076	inactive: -0.046	–	inactive: -0.061	inactive: -0.01	inactive: 0.069	–	inactive: 0.023	inactive: 0.07	inactive: -0.007
BTK isoform 2 (UniProt Q06187)	–	inactive: -0.074	inactive: -0.076	inactive: -0.084	–	inactive: 0.087	inactive: -0.261	inactive: -0.245	–	inactive: -0.029	inactive: 0.071	inactive: 0.008	inactive: 0.264	inactive: 0.481	inactive: 0.073	inactive: -0.025	inactive: 0.176	inactive: 0.161	–	–
C1orf167 isoform 2 (UniProt Q5SNV9)	inactive: 0.265	–	inactive: -0.041	inactive: 0.051	inactive: -0.079	inactive: -0.002	inactive: -0.138	–	inactive: 0.247	inactive: -0.202	inactive: -0.163	–	inactive: 0.007	inactive: -0.489	inactive: -0.038	–	inactive: 0.086	inactive: 0.034	–	–
C19orf12 (UniProt Q9NSK7)	inactive: -0.003	–	inactive: -0.006	inactive: 0.089	–	inactive: 0.101	–	–	inactive: -0.079	inactive: 0.061	–	inactive: -0.048	inactive: -0.078	–	–	–	inactive: -0.023	inactive: -0.296	inactive: 0.14	inactive: -0.035
C19orf57 (UniProt Q0VDD7)	inactive: 0.104	inactive: -0.088	–	–	inactive: -0.059	–	inactive: 0.021	inactive: 0	–	–	–	inactive: -0.132	–	inactive: -0.027	–	inactive: 0.002	–	–	–	–

Part of the list above, comma-delimited:
Target,log2 fold change (bafetinib),log2 fold change [1],log2 fold change (nilotinib),log2 fold change [2],log2 fold change (dasatinib),log2 fold change [3],log2 fold change [4],log2 fold change [5],log2 fold change (tipifarnib),log2 fold change (mubritinib),log2 fold change [6],log2 fold change [7],log2 fold change [8],log2 fold change [9],log2 fold change (entinostat),log2 fold change (vorinostat),log2 fold change (silmitasertib),log2 fold change [10],log2 fold change (citarinostat),log2 fold change [11]
CALCOCO1 (UniProt Q9P1Z2),inactive: 0.039,inactive: -0.017,inactive: 0.005,inactive: -0.072,inactive: -0.082,inactive: 0.019,inactive: -0.034,inactive: -0.077,inactive: 0.099,inactive: 0.012,–,–,inactive: -0.007,inactive: -0.02,–,inactive: 0.075,inactive: 0.091,inactive: -0.006,inactive: -0.121,inactive: 0.025
C1orf159 isoform 4 (UniProt Q96HA4),inactive: 0.064,inactive: -0.101,–,–,–,–,inactive: 0.121,–,–,–,inactive: 0.205,–,–,inactive: -0.157,inactive: -0.002,inactive: -0.042,–,–,–,–
